Measurements taken from patent publication US11653679B2, “High-purity steviol glycosides” (PureCircle Sdn Bhd, priority 2014, dated 2023).
Some compounds share one wording; it may come from a single statement.

test system: Isolase; experiment: Stability of rebaudiosides in the presence of Isolase (Example 50); assay type: biochemical; conditions: 1 mM, pH 4.5, 30° C., 24 h

Conversion of rebaudioside in the presence of Isolase, no significant conversion:
C=C1C[C@@]23CC[C@H]4[C@@](C)(CCC[C@@]4(C)C(=O)O[C@@H]4O[C@H](CO)[C@@H](O)[C@H](O)[C@H]4O[C@@H]4O[C@H](CO)[C@@H](O)[C@H](O)[C@H]4O)[C@@H]2CC[C@]1(O[C@@H]1O[C@H](CO)[C@@H](O)[C@H](O[C@@H]2O[C@H](CO)[C@@H](O)[C@H](O)[C@H]2O)[C@H]1O[C@@H]1O[C@H](CO)[C@@H](O)[C@H](O)[C@H]1O)C3 [Rebaudioside D]
C=C1C[C@@]23CC[C@H]4[C@@](C)(CCC[C@@]4(C)C(=O)O[C@@H]4O[C@H](CO)[C@@H](O)[C@H](O[C@@H]5O[C@H](CO)[C@@H](O)[C@H](O)[C@H]5O)[C@H]4O[C@@H]4O[C@H](CO)[C@@H](O)[C@H](O)[C@H]4O)[C@@H]2CC[C@]1(O[C@@H]1O[C@H](CO)[C@@H](O)[C@H](O[C@@H]2O[C@H](CO)[C@@H](O)[C@H](O)[C@H]2O)[C@H]1O[C@@H]1O[C@H](CO)[C@@H](O)[C@H](O)[C@H]1O)C3 [reb M, Rebaudioside M]
C=C1C[C@@]23CC[C@H]4[C@@](C)(CCC[C@@]4(C)C(=O)O[C@@H]4O[C@H](CO)[C@@H](O)[C@H](O)[C@H]4O)[C@@H]2CC[C@]1(O[C@@H]1O[C@H](CO)[C@@H](O)[C@H](O[C@@H]2O[C@H](CO)[C@@H](O)[C@H](O)[C@H]2O)[C@H]1O[C@@H]1O[C@H](CO)[C@@H](O)[C@H](O)[C@H]1O)C3 [Rebaudioside A, reference compound]
